Experimental data from PubChem BioAssay AID651768 (National Center for Advancing Translational Sciences (NCATS), 2012).
Among all 360,000 compounds or so, about 1,700 (0.47%) were called active. The inconclusive results got no clear call from the source; some entries with a clear call stand among them for comparison. Calls follow the shape of the dose curve; as a rule, active = well fitted inhibition curve with a large enough effect; inconclusive = small, poorly fitted or top-dose-only effect; inactive = no such curve, though single readings can be large or run the other way. Where the call is inconclusive, the potency comes from a doubtful curve fit.

The chains behind the UniProt entries cited, without tags or fusion partners.
UniProt Q14191, whole entry, looked up: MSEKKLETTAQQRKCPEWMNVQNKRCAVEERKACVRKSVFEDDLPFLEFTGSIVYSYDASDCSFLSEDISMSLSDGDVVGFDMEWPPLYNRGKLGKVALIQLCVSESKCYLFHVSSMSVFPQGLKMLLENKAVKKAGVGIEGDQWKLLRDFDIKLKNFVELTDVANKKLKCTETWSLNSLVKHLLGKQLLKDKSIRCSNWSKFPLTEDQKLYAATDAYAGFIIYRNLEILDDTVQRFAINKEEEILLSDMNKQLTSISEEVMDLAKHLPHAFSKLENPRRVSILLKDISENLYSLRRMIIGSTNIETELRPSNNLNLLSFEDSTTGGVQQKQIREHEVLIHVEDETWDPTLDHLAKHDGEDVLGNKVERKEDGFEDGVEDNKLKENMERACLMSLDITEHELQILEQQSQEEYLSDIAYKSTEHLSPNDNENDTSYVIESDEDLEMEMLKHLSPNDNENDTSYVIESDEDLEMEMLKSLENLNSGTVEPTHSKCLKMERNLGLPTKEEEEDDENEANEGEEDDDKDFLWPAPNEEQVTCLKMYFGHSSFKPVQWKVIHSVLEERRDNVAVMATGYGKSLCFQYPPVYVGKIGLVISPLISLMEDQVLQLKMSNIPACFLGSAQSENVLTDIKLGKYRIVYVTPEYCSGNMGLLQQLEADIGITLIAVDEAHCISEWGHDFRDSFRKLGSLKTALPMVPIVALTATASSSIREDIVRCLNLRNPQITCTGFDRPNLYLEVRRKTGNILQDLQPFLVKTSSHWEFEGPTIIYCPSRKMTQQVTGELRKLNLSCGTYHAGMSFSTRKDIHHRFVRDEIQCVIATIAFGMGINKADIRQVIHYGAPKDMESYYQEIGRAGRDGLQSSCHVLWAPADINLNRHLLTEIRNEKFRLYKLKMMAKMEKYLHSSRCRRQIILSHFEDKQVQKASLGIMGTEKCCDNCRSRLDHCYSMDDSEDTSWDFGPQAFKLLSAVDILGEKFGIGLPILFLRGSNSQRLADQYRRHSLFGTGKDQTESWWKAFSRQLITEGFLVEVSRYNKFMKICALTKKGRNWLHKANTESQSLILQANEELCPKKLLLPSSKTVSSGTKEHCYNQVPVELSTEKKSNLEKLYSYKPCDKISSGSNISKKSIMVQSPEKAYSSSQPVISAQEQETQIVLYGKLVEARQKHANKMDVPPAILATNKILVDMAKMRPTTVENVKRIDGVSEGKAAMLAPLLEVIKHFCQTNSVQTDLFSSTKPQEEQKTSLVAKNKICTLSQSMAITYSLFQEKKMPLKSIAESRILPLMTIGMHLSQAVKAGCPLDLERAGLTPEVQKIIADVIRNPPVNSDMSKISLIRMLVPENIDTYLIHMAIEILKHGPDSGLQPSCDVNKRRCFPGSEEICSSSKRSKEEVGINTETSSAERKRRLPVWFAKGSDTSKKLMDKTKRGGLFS

molecular target: Bifunctional 3'-5' exonuclease/ATP-dependent helicase WRN (Homo sapiens) (UniProt Q14191); test: qHTS for Inhibitors of WRN Helicase; conditions: WRN helicase unwinding, fluorescent forked duplex, kinetic; activity change, negative = inhibition: at 114 µM (top of the series) unless noted; also: nearly all actives have a fitted effect of over 55% in size
How it was run: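 WRN at 20 nM final was preincubated with compound for 15 min at room temperature; reaction started with 100 nM forked duplex oligonucleotide carrying fluorophore and quencher plus 2 mM ATP (final). Unwinding followed kinetically by red fluorescence (ex 525/em 598 nm).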
% is scaled to controls: 0 for no effect and ±100 for the full control effect; potency is read from the fitted curve at half-maximal effect.

| Compound | Potency | activity change, negative = inhibition |
| --- | --- | --- |
| CC1=Nc2ccc(C)cc2/C1=C/c1c(N)n2c(S(=O)(=O)C(C)C)nsc2nc1=O | inconclusive: 35.5 µM [inhibitor, partial curve] | – |
| CC1=NN(c2cccc(C(=O)O)c2)C(=O)/C1=C\C=C/c1ccccc1 | inconclusive: 31.6 µM [inhibitor, partial curve] | – |
| O=C(NCCc1c[nH]c2ccccc12)c1ccc(-n2cnnn2)cc1 | inconclusive: 89.1 µM [inhibitor, single point] | – |
| CN(C)c1ccc2c(O)cc(=O)n(C)c2c1 | – | inactive: -7.85% |
| CC(=O)N1CCN(c2nc(-c3cccs3)nc3ccccc23)CC1 | inconclusive: 89.1 µM [inhibitor, single point] | – |
| Cc1cc(C)c(NC(=O)CN(c2ccccc2)S(=O)(=O)N(C)C)c(C)c1 | – | inactive: -13% [at 57.1 µM] |
| Cc1ccc(NC(=O)c2ccc(Cl)c(N3C(=O)C=CC3=O)c2)cc1 | active: 50.1 µM | – |
| Cc1ccc(C(=O)NNC(=S)NC(=O)c2ccccc2)cc1 | inconclusive: 11.2 µM [inhibitor, full curve, poor fit] | – |
| CSc1nsc(SCC(=O)Nc2ccc(Cl)c(C(=O)O)c2)n1 | inconclusive: 12.6 µM [inhibitor, partial curve] | – |
| CCOc1cc(/C=C2\C(=O)N(c3ccc(C(N)=O)cc3)N=C2C)ccc1OC(=O)c1cccs1 | inconclusive: 50.1 µM [inhibitor, partial curve] | – |
| Cc1ccc(S(=O)(=O)NCCC(=O)N2CCN(c3cccc(Cl)c3)CC2)cc1C | inconclusive: 89.1 µM [inhibitor, single point] | – |
| c1ccc2[nH]c3cc4ncnc4cc3nc2c1 | inconclusive: 17.8 µM [inhibitor, full curve, poor fit] | – |
| Cc1cc(NS(=O)(=O)c2ccc(NC(=S)NC(=O)c3ccc(Br)cc3)cc2)no1 | inconclusive: 89.1 µM [inhibitor, single point] | – |
| CC1(C)NC(=O)N(CC(=O)N2CCN(S(=O)(=O)c3ccccc3C(F)(F)F)CC2)C1=O | inconclusive: 22.4 µM [inhibitor, single point] | – |
| COc1cc(C(=O)Nc2nc3ccc(S(=O)(=O)N4CCOCC4)cc3s2)cc(OC)c1OC | active: 50.1 µM | – |
| CCOC(=O)CN1C(=O)S/C(=C/c2cccc([N+](=O)[O-])c2O)C1=O | – | inactive: -2.06% [at 57.1 µM] |
| CC1=C(c2ccccc2)[N+](=O)C2(CCCC2)N1[O-] | – | inactive: 8.22% |
| CC(=O)NN1C(=O)/C(=C/c2ccc(Br)o2)SC1=S | active: 50.1 µM | – |
| O=C(COC(=O)c1cc(-c2cccs2)nc2ccccc12)NCc1ccco1 | inconclusive: 50.1 µM [inhibitor, partial curve] | – |
| Cc1ccc(C(c2cc(Cl)c3cccnc3c2O)N2CCN(C)CC2)cc1 (stereo not given) | inconclusive: 50.1 µM [inhibitor, partial curve] | – |
| O=C(Nc1ccc(Br)cc1)c1ccc(Br)c(S(=O)(=O)Nc2cccnc2)c1 | inconclusive: 31.6 µM [inhibitor, partial curve] | – |
| Oc1cccc(CN2CCOCC2)c1O | inconclusive: 20 µM [inhibitor, full curve] | – |
| O=C(NNC(=O)c1ccc(Br)s1)NC1CCCCC1 | inconclusive: 89.1 µM [inhibitor, single point] | – |

| Compound | Potency | activity change, negative = inhibition |
| --- | --- | --- |
| Cc1cc(C(=O)N/N=C/c2c3ccccc3cc3ccccc23)n[nH]1 | inconclusive: 89.1 µM [inhibitor, single point] | – |
| CC(C)CN(C(=O)COC(=O)c1cc2c(s1)CCC2)C1CCS(=O)(=O)C1 (stereo not given) | inconclusive: 44.7 µM [inhibitor, partial curve] | – |
| Cc1nn(-c2cccc(Cl)c2)c2nc(-c3ccco3)cc(C(=O)O)c12 | inconclusive: 39.8 µM [inhibitor, partial curve] | – |
| O=c1[nH]c2ccccc2n2c(-c3ccncc3)nnc12 | inconclusive: 79.4 µM [inhibitor, partial curve] | – |
| COc1ccccc1N1CCN(C2=Nc3cccc4cccc2c34)CC1 | inconclusive: 70.8 µM [inhibitor, single point] | – |
| O=[n+]1c2c(n([O-])c3cc(F)c(N4CCCC4)cc31)CCC2 | inconclusive: 56.2 µM [inhibitor, partial curve, poor fit] | – |
| CCCCC1(C)Cc2ccccc2C(=S)N1 (stereo not given) | – | inactive: -2.83% |
| O=C1NCC(O)=C1C=NCCO | – | inactive: -28.9% |
| CCOC(=O)c1c(C=O)c(C)n(Cc2ccc(Cl)cc2)c1C | – | inactive: -0.429% |
| COc1cc(-c2cnc3c(NC=O)cc(-c4ccc(S(C)(=O)=O)cc4)cn23)cc(OC)c1OC | inconclusive: 79.4 µM [inhibitor, partial curve] | – |
| CCOC(=O)N(C)OC(=O)Nc1ccc(Cl)c(Cl)c1 | inconclusive: 50.1 µM [inhibitor, partial curve] | – |
| O=S(=O)(O)c1cc(O)c2c(O)c(N=Nc3cc(Cl)ccc3O)c(S(=O)(=O)O)cc2c1 | active: 44.7 µM | – |
| O=C(CSc1ccc(-c2ccco2)nn1)NC1CCCC1 | – | inactive: -4.42% |
| CCOC(=O)/C(C)=N/NC(=O)c1ccc([N+](=O)[O-])cc1 | inconclusive: 28.2 µM [inhibitor, single point] | – |
| COc1ccc2c(c1)c(=O)oc1cc(O)ccc12 | – | inactive: -18.1% |
| Cc1cc(/C=C2\SC(=S)NC2=O)c(C)n1C1CC1 | inconclusive: 35.5 µM [inhibitor, partial curve] | – |
| CCOc1ccc2c(=O)c(-c3ccc4c(c3)OCCCO4)c(C)oc2c1 | inconclusive: 89.1 µM [inhibitor, single point] | – |
| CCOC(=O)C1=C(C)N(CCCCCC(=O)O)C(=O)NC1c1ccc(Cl)cc1 (stereo not given) | – | inactive: 0.102% |
| COC(=O)c1ccc(N/C(=N/S(=O)(=O)c2ccccc2)c2ccccc2)cc1 | – | inactive: -24.9% |
| COC(=O)c1sc(-c2ccc(Cl)cc2)cc1NC(=O)CSCC(=O)O | – | inactive: -4.03% |
| O=C(CCCCn1cnc2c(=S)nc[nH]c21)Nc1ccc(C(=O)O)c(O)c1 | inconclusive: 31.6 µM [inhibitor, partial curve, poor fit] | – |
| O=S(=O)(c1ccc2oc(=S)[nH]c2c1)N1CCOCC1 | inconclusive: 79.4 µM [inhibitor, partial curve] | – |

Of the compounds above, 2 contain an aryl thioether with sulfur outside any ring:

| Compound | Potency | activity change, negative = inhibition |
| --- | --- | --- |
| CSc1nsc(SCC(=O)Nc2ccc(Cl)c(C(=O)O)c2)n1 | inconclusive: 12.6 µM [inhibitor, partial curve] | – |
| O=C(CSc1ccc(-c2ccco2)nn1)NC1CCCC1 | – | inactive: -4.42% |
